No constants are given. Whether binding was seen depends on the method and setting. For part of these data: Binding seen in cells or lysates may run through a third protein. Some binding calls cover weakened binding; strength is not graded here. Tags and fused reporters may be left off the sequences shown.
T1: Robo4 cytoplasmic tail-HA (UniProt Q8C310)
T1 sequence (looked up): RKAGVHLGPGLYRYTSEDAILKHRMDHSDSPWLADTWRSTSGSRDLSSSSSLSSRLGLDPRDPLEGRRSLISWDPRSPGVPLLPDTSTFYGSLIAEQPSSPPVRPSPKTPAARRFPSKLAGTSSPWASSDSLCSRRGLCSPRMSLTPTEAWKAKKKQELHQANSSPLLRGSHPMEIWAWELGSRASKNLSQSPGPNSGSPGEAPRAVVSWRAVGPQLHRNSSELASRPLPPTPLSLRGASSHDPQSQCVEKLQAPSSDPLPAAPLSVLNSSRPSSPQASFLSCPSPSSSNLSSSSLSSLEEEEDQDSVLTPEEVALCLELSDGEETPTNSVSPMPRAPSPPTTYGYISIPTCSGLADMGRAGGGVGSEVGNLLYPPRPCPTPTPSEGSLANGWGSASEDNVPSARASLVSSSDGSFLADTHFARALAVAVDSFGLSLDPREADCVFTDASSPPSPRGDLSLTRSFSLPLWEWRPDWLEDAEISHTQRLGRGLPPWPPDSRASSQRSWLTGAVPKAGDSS

Chains of the proteins cited; added tags and fusions are not shown. Lines headed by an entry give the natural chain unless they say otherwise; changes in a name come on top.
UniProt Q62219: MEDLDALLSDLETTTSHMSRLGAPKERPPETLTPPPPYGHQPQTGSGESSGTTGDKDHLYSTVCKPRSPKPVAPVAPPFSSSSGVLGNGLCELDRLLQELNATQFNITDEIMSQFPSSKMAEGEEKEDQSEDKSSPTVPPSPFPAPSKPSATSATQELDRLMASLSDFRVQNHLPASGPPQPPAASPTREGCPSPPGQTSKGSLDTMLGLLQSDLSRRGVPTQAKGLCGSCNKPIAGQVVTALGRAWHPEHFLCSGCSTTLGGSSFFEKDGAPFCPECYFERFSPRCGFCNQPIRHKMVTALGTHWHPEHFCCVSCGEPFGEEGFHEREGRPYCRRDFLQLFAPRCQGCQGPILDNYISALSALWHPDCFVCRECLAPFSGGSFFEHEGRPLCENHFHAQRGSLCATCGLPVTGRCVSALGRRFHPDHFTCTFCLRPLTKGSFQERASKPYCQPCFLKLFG
UniProt Q8VI36: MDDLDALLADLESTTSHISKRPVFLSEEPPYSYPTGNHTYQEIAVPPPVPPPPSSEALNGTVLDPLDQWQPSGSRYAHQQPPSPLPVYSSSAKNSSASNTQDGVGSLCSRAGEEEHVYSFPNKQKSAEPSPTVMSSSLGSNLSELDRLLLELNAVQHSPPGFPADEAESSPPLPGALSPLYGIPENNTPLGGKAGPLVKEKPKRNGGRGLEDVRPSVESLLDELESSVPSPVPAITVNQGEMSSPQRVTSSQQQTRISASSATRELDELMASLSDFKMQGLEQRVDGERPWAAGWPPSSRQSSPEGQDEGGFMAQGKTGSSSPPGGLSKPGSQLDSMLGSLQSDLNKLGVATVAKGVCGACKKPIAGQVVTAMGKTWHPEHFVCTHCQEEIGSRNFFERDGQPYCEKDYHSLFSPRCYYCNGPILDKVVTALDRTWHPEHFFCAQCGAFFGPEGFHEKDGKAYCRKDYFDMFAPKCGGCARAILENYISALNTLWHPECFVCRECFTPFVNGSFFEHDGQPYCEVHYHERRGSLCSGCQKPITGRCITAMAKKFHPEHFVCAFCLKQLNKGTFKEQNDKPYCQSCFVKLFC

T2: Robo4-HA (full length Robo4 tagged with a HA epitope) (UniProt Q8C310)
T2 sequence (looked up): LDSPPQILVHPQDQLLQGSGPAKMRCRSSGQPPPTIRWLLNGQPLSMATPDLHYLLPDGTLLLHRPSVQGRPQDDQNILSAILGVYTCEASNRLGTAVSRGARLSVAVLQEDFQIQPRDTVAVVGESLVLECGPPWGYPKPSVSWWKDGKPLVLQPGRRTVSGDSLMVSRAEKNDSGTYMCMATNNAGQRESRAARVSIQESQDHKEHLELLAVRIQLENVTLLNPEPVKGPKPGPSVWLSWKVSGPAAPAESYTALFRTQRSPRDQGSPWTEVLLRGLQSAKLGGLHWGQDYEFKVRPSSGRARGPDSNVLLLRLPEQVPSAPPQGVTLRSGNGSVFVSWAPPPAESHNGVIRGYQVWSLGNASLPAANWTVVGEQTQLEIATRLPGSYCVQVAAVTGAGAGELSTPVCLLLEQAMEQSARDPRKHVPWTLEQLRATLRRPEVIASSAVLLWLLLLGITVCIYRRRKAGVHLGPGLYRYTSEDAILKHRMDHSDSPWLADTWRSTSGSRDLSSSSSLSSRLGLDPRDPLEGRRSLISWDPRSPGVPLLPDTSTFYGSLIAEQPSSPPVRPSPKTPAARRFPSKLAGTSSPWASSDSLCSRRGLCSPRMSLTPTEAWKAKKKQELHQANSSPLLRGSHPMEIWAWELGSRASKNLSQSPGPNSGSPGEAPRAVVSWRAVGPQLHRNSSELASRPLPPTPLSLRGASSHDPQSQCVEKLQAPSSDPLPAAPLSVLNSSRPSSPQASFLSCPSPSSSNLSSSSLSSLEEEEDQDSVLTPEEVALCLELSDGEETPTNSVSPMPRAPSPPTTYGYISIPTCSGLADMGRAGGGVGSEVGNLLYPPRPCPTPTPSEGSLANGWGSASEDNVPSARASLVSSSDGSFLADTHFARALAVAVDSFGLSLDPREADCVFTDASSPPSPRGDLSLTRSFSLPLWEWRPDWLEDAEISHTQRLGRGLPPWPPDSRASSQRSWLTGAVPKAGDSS

T3: NRobo4-HA (N-terminal soluble ectodomain of Robo4 tagged with the HA epitope) (UniProt Q8C310)
T3 sequence (looked up): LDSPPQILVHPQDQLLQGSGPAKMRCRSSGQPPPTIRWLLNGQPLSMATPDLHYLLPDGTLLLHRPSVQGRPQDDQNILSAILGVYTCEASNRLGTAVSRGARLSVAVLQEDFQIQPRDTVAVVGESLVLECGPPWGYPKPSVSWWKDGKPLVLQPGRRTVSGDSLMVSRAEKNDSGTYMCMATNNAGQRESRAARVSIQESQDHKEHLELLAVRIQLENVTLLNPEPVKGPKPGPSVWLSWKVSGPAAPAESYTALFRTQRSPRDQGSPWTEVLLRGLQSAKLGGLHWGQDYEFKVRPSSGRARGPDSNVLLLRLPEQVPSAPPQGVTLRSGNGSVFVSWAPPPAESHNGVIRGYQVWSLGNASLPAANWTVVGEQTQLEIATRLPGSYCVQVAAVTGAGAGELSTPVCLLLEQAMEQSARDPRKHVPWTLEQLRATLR

B1: Slit-myc (Slit tagged with a myc epitope) (ligand, UniProt O94813 31-1529, looked up, not shown: small tags and cut ends)
chain: QCSCSGSTVDCHGLALRSVPRNIPRNTERLDLNGNNITRITKTDFAGLRHLRVLQLMENKISTIERGAFQDLKELERLRLNRNHLQLFPELLFLGTAKLYRLDLSENQIQAIPRKAFRGAVDIKNLQLDYNQISCIEDGAFRALRDLEVLTLNNNNITRLSVASFNHMPKLRTFRLHSNNLYCDCHLAWLSDWLRQRPRVGLYTQCMGPSHLRGHNVAEVQKREFVCSGHQSFMAPSCSVLHCPAACTCSNNIVDCRGKGLTEIPTNLPETITEIRLEQNTIKVIPPGAFSPYKKLRRIDLSNNQISELAPDAFQGLRSLNSLVLYGNKITELPKSLFEGLFSLQLLLLNANKINCLRVDAFQDLHNLNLLSLYDNKLQTIAKGTFSPLRAIQTMHLAQNPFICDCHLKWLADYLHTNPIETSGARCTSPRRLANKRIGQIKSKKFRCSAKEQYFIPGTEDYRSKLSGDCFADLACPEKCRCEGTTVDCSNQKLNKIPEHIPQYTAELRLNNNEFTVLEATGIFKKLPQLRKINFSNNKITDIEEGAFEGASGVNEILLTSNRLENVQHKMFKGLESLKTLMLRSNRITCVGNDSFIGLSSVRLLSLYDNQITTVAPGAFDTLHSLSTLNLLANPFNCNCYLAWLGEWLRKKRIVTGNPRCQKPYFLKEIPIQDVAIQDFTCDDGNDDNSCSPLSRCPTECTCLDTVVRCSNKGLKVLPKGIPRDVTELYLDGNQFTLVPKELSNYKHLTLIDLSNNRISTLSNQSFSNMTQLLTLILSYNRLRCIPPRTFDGLKSLRLLSLHGNDISVVPEGAFNDLSALSHLAIGANPLYCDCNMQWLSDWVKSEYKEPGIARCAGPGEMADKLLLTTPSKKFTCQGPVDVNILAKCNPCLSNPCKNDGTCNSDPVDFYRCTCPYGFKGQDCDVPIHACISNPCKHGGTCHLKEGEEDGFWCICADGFEGENCEVNVDDCEDNDCENNSTCVDGINNYTCLCPPEYTGELCEEKLDFCAQDLNPCQHDSKCILTPKGFKCDCTPGYVGEHCDIDFDDCQDNKCKNGAHCTDAVNGYTCICPEGYSGLFCEFSPPMVLPRTSPCDNFDCQNGAQCIVRINEPICQCLPGYQGEKCEKLVSVNFINKESYLQIPSAKVRPQTNITLQIATDEDSGILLYKGDKDHIAVELYRGRVRASYDTGSHPASAIYSVETINDGNFHIVELLALDQSLSLSVDGGNPKIITNLSKQSTLNFDSPLYVGGMPGKSNVASLRQAPGQNGTSFHGCIRNLYINSELQDFQKVPMQTGILPGCEPCHKKVCAHGTCQPSSQAGFTCECQEGWMGPLCDQRTNDPCLGNKCVHGTCLPINAFSYSCKCLEGHGGVLCDEEEDLFNPCQAIKCKHGKCRLSGLGQPYCECSSGYTGDSCDREISCRGERIRDYYQKQQGYAACQTTKKVSRLECRGGCAGGQCCGPLRSKRRKYSFECTDGSSFVDEVEKVVKCGCTRCVS

Assays:
[1] = target: T1, Robo4 cytoplasmic tail-HA; assay: co-immunoprecipitation (anti-HA IP, anti-V5 blot), HEK 293 cells
[2] = target: T2, Robo4-HA (full length Robo4 tagged with a HA epitope); assay: cell binding, Slit-myc conditioned medium on stable Robo4-HEK cells, anti-myc immunofluorescence
[3] = target: T2, Robo4-HA (full length Robo4 tagged with a HA epitope); assay: immunoprecipitation from combined HEK cell lysates (anti-HA IP, anti-myc blot)
[4] = target: T3, NRobo4-HA (N-terminal soluble ectodomain of Robo4 tagged with the HA epitope); assay: immunoprecipitation from combined conditioned media (anti-HA IP, anti-myc blot)

Molecule	binding [1]	binding [2]	binding [3]	binding [4]
Hic-5-V5 (from UniProt Q62219 1-461)	binds			
paxillin-Lim (from UniProt Q8VI36 356-591)	binds			
paxillin-V5 (from UniProt Q8VI36 1-591)	binds			
B1		binds	binds	binds
